From PubChem BioAssay AID662 (National Center for Advancing Translational Sciences (NCATS), 2007) come the findings set out here.

This is one part of the list. Shown are side measurements of this screen, not its main read-out; they come without a call. Most of these compounds were active or inconclusive in the main read-out, so they are no random draw. The note in brackets gives the kind of curve behind each potency; many fits are weak.

The test can be described thus: Cell signaling CRE-BLA (Fsk stim). The conditions noted are these: CHO CRE-bla reporter (cAMP response element driving beta-lactamase), forskolin EC10, beta-lactamase ratio; measured here: 460 nm blue channel. An outline of the steps:
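qHTS titration format; CRE-bla CHO reporter; stimulus EC10 NKH 477, a water-soluble forskolin. Read: CCF4 460/530 nm ratio. Potency expressed as AC50 for activators or inhibitors.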
Broadly, the AC50 is the concentration at which the activity in the assay is half-maximal. Take `CCN(CC)CCN(Cc1cc2cc(C)ccc2[nH]c1=O)C(=O)Nc1ccccc1OC`: the AC50 was 0.02 µM [falling, full curve, poor fit].
Turning to `C=CCn1c(=N)c(C(=O)NCCCOC)cc2c(=O)n3ccccc3nc21`, the AC50 is 12.6 µM [rising, partial curve].
The same measure for `O=c1cnc2cncnc2n1Cc1ccccc1`: 12.6 µM [rising, partial curve]; for `CCc1ccccc1NC(=O)c1cnc2scc(C)n2c1=O`: 12.6 µM [rising, single point]; for `Cc1ccc(-n2c(SCc3cn4ccsc4n3)nc3ccccc3c2=O)cc1`: 1.26 µM [rising, partial curve].
Regarding `CCC/C=C(\CCC)C(NS(=O)(=O)c1ccc(C(F)(F)F)cc1)c1ccccc1` (centres undefined), the concentration at half-maximal activity (AC50) was 2.51 µM [rising, full curve].
Turning to `CCOC(=O)/C(C#N)=C1/C=C(C)NC(c2ccccc2O)=N1`, the AC50 is 0.126 µM [rising, full curve].
Consider `COC(=O)CSc1nc2ccccc2c(=O)n1C`, for which the AC50 is 5.01 µM [falling, single point].
The same measure for `O=C(CN1CCN(S(=O)(=O)c2ccc(Cl)cc2)CC1)Nc1ccc2c(c1)OCCO2`: 7.94 µM [falling, partial curve].
The same measure for `CCCCOCCCn1c(-c2ccco2)nc2nc3ccccc3nc21`: 12.6 µM [rising, partial curve]; for `CCCn1c(SCc2ccc(Cl)cc2)nc2c1c(=O)[nH]c(=O)n2C`: 12.6 µM [rising, partial curve]; for `CCCSc1nc2c(c(=O)[nH]c(=O)n2C)n1CCc1ccccc1`: 3.16 µM [rising, full curve].
For `O=C(COc1ccc(Cl)cc1Cl)NCc1ccncc1`, the AC50 was 0.00316 µM [falling, full curve, poor fit].
Take `CCn1c(=O)cc(OCC(=O)NCCC(C)C)c2ccccc21`: the AC50 is 6.31 µM [rising, partial curve].
For the compound `CCNc1ncc2nc(-c3ccc(F)cc3)c(=O)n(-c3ccc(OC)cc3)c2n1`, the AC50 was 2.51 µM [rising, full curve].
Regarding `COc1cccc(C2=CC(c3ccc(N(C)C)cc3)n3ncnc3N2)c1` (centres undefined), the AC50 is 12.6 µM [rising, partial curve].
For `O=C(CCN1C(=O)C2C3C=CC(C3)C2C1=O)N1CCN(c2cccc(Cl)c2)CC1` (centres undefined), the AC50 was 0.631 µM [rising, full curve].
Consider `Nc1c(-c2ccccc2)n[nH]c1-c1ccccc1`, for which the AC50 is 0.0158 µM [falling, full curve, poor fit].
As for `O=c1[nH]c2ccsc2c(=O)n1-c1ccc(F)c(Cl)c1`, the AC50 was 0.794 µM [rising, full curve, poor fit].
Turning to `Cn1c(CNc2nc(-c3ccccc3)cs2)nnc1SCC(=O)N1CCc2ccccc21`, the AC50 was 0.1 µM [falling, partial curve, poor fit].
As for `O=c1c2ccccc2nc(-c2ccco2)n1/N=C/c1ccco1`, the figure is 10 µM [rising, partial curve]; as for `COc1cccc(Cn2c(=S)[nH]c3ccc(N4CCOCC4)cc3c2=O)c1`, 15.8 µM [rising, partial curve].
The same measure for `COc1ccc(C(=O)SC2=NCCS2)cc1OC`: 2.51 µM [falling, partial curve, poor fit]; for `O=c1[nH]n(CC2COC3(CCCCC3)O2)c(=O)c2ccccc12` (centres undefined): 25.1 µM [rising, single point].
The same measure for `Cc1ccc(Cl)cc1N1CCN(C(=O)Cn2ccc3ccccc3c2=O)CC1`: 31.6 µM [falling, single point]; for `c1ccc(Sc2nc(N3CCCCC3)nc(N3CCCCC3)n2)nc1`: 1 µM [rising, partial curve]; for `Cn1c(-c2ccccc2)cc(=O)c2ccccc21`: 12.6 µM [rising, single point].
`CC1=C(C(=O)N(C)C)C(c2cccc(Cl)c2)NC(=O)N1` (centres undefined): the AC50 was 12.6 µM [rising, single point].
As for `O=C(O)CSc1nnc(Cn2nnc3ccccc32)n1CCc1ccccc1`, the figure is 10 µM [rising, partial curve]; as for `CN(C)c1ncc2nc(-c3cc(F)cc(F)c3)c(=O)n(C3CC3)c2n1`, 12.6 µM [rising, partial curve]; as for `Cc1cccc(S(=O)(=O)C(C#N)c2nc3ccccc3nc2N2CCCC2)c1` (centres undefined), 10 µM [rising, single point].
The same measure for `CC(=O)NC(=S)c1c(N)n(Cc2ccccc2)c(=O)n(C)c1=O`: 3.98 µM [falling, single point]; for `Cc1cc(C)nc(-n2nc(C)cc2NC(=O)CN2CCc3ccccc3C2)n1`: 7.94 µM [rising, partial curve].
The same measure for `O=c1c(-c2cccs2)nc2cnc(Oc3ccccc3)nc2n1-c1ccccc1`: 2 µM [rising, full curve]; for `Cc1cc(NC(=O)COC(=O)C2CCN(S(=O)(=O)c3ccc(Cl)cc3)CC2)no1`: 1 µM [falling, full curve]; for `CCc1ccc(C(=O)CSC2=C(C#N)C(c3ccco3)C(C(C)=O)=C(C)N2)cc1` (centres undefined): 0.251 µM [rising, full curve, poor fit].
With `O=C(O)CC(O)C(=O)O` (centres undefined), the AC50 is 0.00501 µM [falling, full curve, poor fit].
With `Cc1cnc(CNc2nc(-c3ccc(C(=O)N(C)C)cc3)nc3ccccc23)cn1`, the AC50 was 6.31 µM [rising, partial curve].
As for `Cc1cccn2c(=O)c(C=NCc3ccccc3)c(NCCO)nc12`, the half-maximal activity concentration (AC50) is 10 µM [rising, single point].
In the case of `CCOC(=O)Cc1cc(=O)n(-c2nc3ccccc3s2)[nH]1`, the concentration at half-maximal activity (AC50) is 7.94 µM [falling, partial curve].
As for `COc1cccc(C(c2sc3ncnn3c2O)N2CCc3ccccc3C2)c1` (centres undefined), the figure is 12.6 µM [rising, partial curve].
As for `CCOC(=O)c1ccc(NC(=O)Nc2ccc3c4c(cccc24)C(=O)N3CC)cc1`, the figure is 0.251 µM [rising, full curve]; as for `CCOCCCNC(=O)C1CCC(CNS(=O)(=O)c2ccc(F)cc2)CC1` (centres undefined), 5.01 µM [falling, single point].
As for `CCNc1ncc2nc(-c3cccs3)c(=O)n(Cc3ccc(F)cc3)c2n1`, the figure is 3.16 µM [rising, full curve]; as for `COc1cccc(-c2cncnc2NCc2ccc(OC)cc2OC)c1`, 10 µM [rising, single point]; as for `COC(=O)c1ccccc1NC(=O)c1ccccc1OC`, 12.6 µM [rising, single point].
Take `C=C(C)c1cccc(C(C)(C)NC(=O)Nc2ncccn2)c1`: the AC50 was 3.98 µM [rising, single point].
The same measure for `CCOC(=O)C1CCN(c2ncnc3c2cnn3-c2ccccc2)CC1`: 15.8 µM [rising, single point]; for `COc1cccc2[nH]c3c(=O)n(CCN(C)C)cnc3c12`: 15.8 µM [falling, partial curve].
Turning to `Cc1ccccc1Nc1nc(N)nc(CSc2nc3ccccc3c(=O)n2CCCO)n1`, the AC50 is 5.01 µM [rising, partial curve].
For `Cc1ccc(Br)cc1S(=O)(=O)N1CCN(c2ccccc2)CC1`, the AC50 is 10 µM [falling, single point].
The same measure for `COc1ccc(C(C)=O)cc1COC(=O)c1c(C)noc1C`: 5.01 µM [rising, partial curve]; for `CCOc1ccccc1OCCn1nnc2ccccc21`: 25.1 µM [rising, single point]; for `O=C(c1ccc2nc(N3CCCCC3)sc2c1)N1CCN(c2ccccn2)CC1`: 10 µM [rising, partial curve].
For `Cc1cccc(CN(C)CCc2ccccn2)c1`, the AC50 was 0.00794 µM [falling, full curve].
The same measure for `O=C(CCn1c(=O)[nH]c2ccsc2c1=O)N1CCN(c2cccc(Cl)c2)CC1`: 25.1 µM [rising, single point]; for `CCOc1ccc(C(C)=O)cc1N1C(=O)C2C3C=CC(O3)C2C1=O` (centres undefined): 15.8 µM [falling, partial curve, poor fit].
The same measure for `O=c1cnc2cnc(Oc3ccccc3)nc2n1CCc1ccccc1`: 12.6 µM [rising, partial curve].
The same measure for `CC(=O)N1CCc2cc(S(=O)(=O)NC(C(=O)NC3CCCc4ccccc43)C(C)C)ccc21` (centres undefined): 1.26 µM [falling, partial curve].
On to `Cc1cc(C)n2c(SCC(=O)Nc3ccccc3)nnc2n1`, for which the AC50 was 10 µM [rising, partial curve].
Turning to `COC(=O)CSc1nc2ccccc2o1`, the AC50 was 31.6 µM [falling, single point].
As to `Cc1cc(C)c(OCC(=O)Nc2ccc3c(c2)OCO3)cc1C`, the AC50 was 15.8 µM [falling, single point].
`Cc1cc(C)n(-c2ccc(C(=O)Nc3nc4ccccc4s3)cc2)n1`: the AC50 was 3.16 µM [falling, partial curve, poor fit].
The same measure for `CCOC(=O)COc1ccc2c(c1)c(C(=O)OCC)c(C)n2CC`: 10 µM [rising, single point]; for `CCOC(=O)c1sc2nc(N3CCCC3)c3c(c2c1N)CC(C)(C)OC3`: 3.16 µM [rising, partial curve].
The same measure for `Cc1cc(N2C(=O)C3CC=CCC3C2=O)cc(C)c1Br` (centres undefined): 15.8 µM [rising, single point]; for `Cc1oc(-c2ccc(Cl)cc2)nc1CN1CCC(C(=O)NCc2cccnc2)CC1`: 5.01 µM [falling, single point]; for `Cc1cc(NCCN2CCOCC2)n2c(nc3ccccc32)c1C#N`: 3.98 µM [rising, full curve].
The same measure for `Cc1cc(C(=O)OCC(=O)Nc2cc(C(F)(F)F)ccc2N2CCOCC2)c(C)o1`: 12.6 µM [rising, partial curve].
